Binding data for one substance are collected here from paper PMC8850301.

The chains behind the UniProt entries cited, without tags or fusion partners.
UniProt P63096: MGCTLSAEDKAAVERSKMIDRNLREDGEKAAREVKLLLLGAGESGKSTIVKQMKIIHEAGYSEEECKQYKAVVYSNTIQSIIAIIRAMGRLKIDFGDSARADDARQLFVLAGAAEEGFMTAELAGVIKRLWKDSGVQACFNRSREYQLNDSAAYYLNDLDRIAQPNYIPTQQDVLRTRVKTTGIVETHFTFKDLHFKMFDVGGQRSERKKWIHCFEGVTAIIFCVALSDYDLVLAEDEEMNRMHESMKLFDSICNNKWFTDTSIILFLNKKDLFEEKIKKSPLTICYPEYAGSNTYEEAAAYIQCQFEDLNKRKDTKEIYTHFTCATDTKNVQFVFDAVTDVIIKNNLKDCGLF
UniProt P49407: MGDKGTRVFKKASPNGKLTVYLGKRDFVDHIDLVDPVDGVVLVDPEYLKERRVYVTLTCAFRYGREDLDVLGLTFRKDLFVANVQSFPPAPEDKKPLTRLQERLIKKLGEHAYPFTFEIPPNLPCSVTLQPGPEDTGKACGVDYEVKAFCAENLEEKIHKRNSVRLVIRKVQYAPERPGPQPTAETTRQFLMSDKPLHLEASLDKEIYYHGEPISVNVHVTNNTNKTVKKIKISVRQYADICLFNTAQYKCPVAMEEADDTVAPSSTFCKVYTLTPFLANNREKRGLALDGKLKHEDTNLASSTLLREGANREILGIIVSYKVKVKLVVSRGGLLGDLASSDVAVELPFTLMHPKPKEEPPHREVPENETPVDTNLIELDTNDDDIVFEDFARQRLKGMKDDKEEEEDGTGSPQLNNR

The target of this assay is LgBiT-Gαi1 (UniProt P63096). Description: split reporter; NanoBiT complementation in live Ishikawa cells in suspension, 48 h after transfection with SmBiT-βAr1 and LgBiT-Gαi1; furimazine substrate; basal read for 2 min, then FSH (10 nM) added and read over 16 min, once every 17 s; ligand-induced changes as percent of basal.

Results are given in words; binding and its absence hold for the method and conditions named. In cells and extracts the contact can be indirect. Some results given as binding are weak or reduced against the parent protein; the word gives no strength.

On to “SmBiT-β-Arrestin 1 (from UniProt P49407 1-418)”, for which the binding result was “binds”.
